Data as given in PubChem BioAssay AID1259405 (NCATS, 2018)
The deposit covers about 50,000 reagents; below is a random part of them. In the full data, about 4,000 (8%) got an active call. 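Mouse siRNA library applied to hamster cells; one well for each siRNA.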 Reagents against one gene are numbered here. No sequences are given here.

Purpose: 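Knock-downs that lift recombinant protein yield in hamster ovary cells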 (primary screen)
Cell system: Chinese hamster CHO-K1 ovary cells with stable secreted eGFP expression
Knock-down reagent: single siRNA against mouse genes, 0.8 pmol siRNA per well (2 µl of 400 nM stock)
Duration: 3 days
Read-out: 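Per-well intracellular GFP measured by laser scanning cytometry, plus viability from ATP luminescence, each relative to plate median of non-targeting control wells, in %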
Reading the numbers: GFP, % of control: higher = more GFP per well, higher productivity; viability (ATP), % of control: higher = more viable cells (more ATP)
Hit rule: 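a knock-down is called active if GFP reaches 120% or more of non-targeting control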

Nedd4l #1: GFP, % of control = 74.9; viability (ATP), % of control = 55.9; Call = inactive
Nedd4l #2: GFP, % of control = 39.8; viability (ATP), % of control = 39.7; Call = inactive
Nedd4l #3: GFP, % of control = 91.2; viability (ATP), % of control = 104; Call = inactive
Tshr (thyroid stimulating hormone receptor) #1: GFP, % of control = 90.1; viability (ATP), % of control = 73.7; Call = inactive
Tshr (thyroid stimulating hormone receptor) #2: GFP, % of control = 93; viability (ATP), % of control = 98.4; Call = inactive
Tshr (thyroid stimulating hormone receptor) #3: GFP, % of control = 39.2; viability (ATP), % of control = 53.7; Call = inactive
Abca8b (ATP-binding cassette, sub-family A member 8b) #1: GFP, % of control = 94.1; viability (ATP), % of control = 76.7; Call = inactive
Abca8b (ATP-binding cassette, sub-family A member 8b) #2: GFP, % of control = 57.4; viability (ATP), % of control = 78.9; Call = inactive
Abca8b (ATP-binding cassette, sub-family A member 8b) #3: GFP, % of control = 75.9; viability (ATP), % of control = 82.1; Call = inactive
Mfap3 (microfibrillar-associated protein 3) #1: GFP, % of control = 60.7; viability (ATP), % of control = 76.2; Call = inactive
Mfap3 (microfibrillar-associated protein 3) #2: GFP, % of control = 72.5; viability (ATP), % of control = 83.6; Call = inactive
Mfap3 (microfibrillar-associated protein 3) #3: GFP, % of control = 66.8; viability (ATP), % of control = 65.2; Call = inactive
Slc25a28 #1: GFP, % of control = 86.4; viability (ATP), % of control = 84.3; Call = inactive
Slc25a28 #2: GFP, % of control = 45.7; viability (ATP), % of control = 80.4; Call = inactive
Slc25a28 #3: GFP, % of control = 53.1; viability (ATP), % of control = 43.5; Call = inactive
Gm10439 (predicted gene 10439) #1: GFP, % of control = 55.4; viability (ATP), % of control = 68; Call = inactive
Gm10439 (predicted gene 10439) #2: GFP, % of control = 30.2; viability (ATP), % of control = 46.3; Call = inactive
Gm10439 (predicted gene 10439) #3: GFP, % of control = 64.9; viability (ATP), % of control = 36.8; Call = inactive
Erich2 (glutamate rich 2) #1: GFP, % of control = 47.8; viability (ATP), % of control = 59.3; Call = inactive
Erich2 (glutamate rich 2) #2: GFP, % of control = 64.2; viability (ATP), % of control = 86.8; Call = inactive
Erich2 (glutamate rich 2) #3: GFP, % of control = 106; viability (ATP), % of control = 112; Call = inactive
Tmem97 (transmembrane protein 97) #1: GFP, % of control = 63.9; viability (ATP), % of control = 64.3; Call = inactive
Tmem97 (transmembrane protein 97) #2: GFP, % of control = 101; viability (ATP), % of control = 83.7; Call = inactive
Tmem97 (transmembrane protein 97) #3: GFP, % of control = 107; viability (ATP), % of control = 74.3; Call = inactive
Exosc2 (exosome component 2) #1: GFP, % of control = 117; viability (ATP), % of control = 127; Call = inactive
Exosc2 (exosome component 2) #2: GFP, % of control = 92.7; viability (ATP), % of control = 105; Call = inactive
Exosc2 (exosome component 2) #3: GFP, % of control = 53.1; viability (ATP), % of control = 43.1; Call = inactive
Tpsab1 (tryptase alpha/beta 1) #1: GFP, % of control = 57.7; viability (ATP), % of control = 43; Call = inactive
Tpsab1 (tryptase alpha/beta 1) #2: GFP, % of control = 53.2; viability (ATP), % of control = 64.7; Call = inactive
Tpsab1 (tryptase alpha/beta 1) #3: GFP, % of control = 104; viability (ATP), % of control = 98.6; Call = inactive
C1ql3 (C1q-like 3) #1: GFP, % of control = 54.1; viability (ATP), % of control = 72.6; Call = inactive
C1ql3 (C1q-like 3) #2: GFP, % of control = 59.5; viability (ATP), % of control = 89.6; Call = inactive
C1ql3 (C1q-like 3) #3: GFP, % of control = 22.5; viability (ATP), % of control = 45.8; Call = inactive
Lmx1a (LIM homeobox transcription factor 1 alpha) #1: GFP, % of control = 40.4; viability (ATP), % of control = 59; Call = inactive
Lmx1a (LIM homeobox transcription factor 1 alpha) #2: GFP, % of control = 101; viability (ATP), % of control = 102; Call = inactive
Lmx1a (LIM homeobox transcription factor 1 alpha) #3: GFP, % of control = 91; viability (ATP), % of control = 92.1; Call = inactive
Pstpip2 (proline-serine-threonine phosphatase-interacting protein 2) #1: GFP, % of control = 64.3; viability (ATP), % of control = 56.9; Call = inactive
Pstpip2 (proline-serine-threonine phosphatase-interacting protein 2) #2: GFP, % of control = 74.1; viability (ATP), % of control = 74.5; Call = inactive
Ccdc28b (coiled coil domain containing 28B) #1: GFP, % of control = 75.4; viability (ATP), % of control = 80.9; Call = inactive
Ccdc28b (coiled coil domain containing 28B) #2: GFP, % of control = 56.2; viability (ATP), % of control = 62.9; Call = inactive
Ccdc28b (coiled coil domain containing 28B) #3: GFP, % of control = 85.4; viability (ATP), % of control = 92.7; Call = inactive
